# Experimental data taken from PubChem BioAssay AID504834 (National Center for Advancing Translational Sciences (NCATS), 2011).
# The whole screen tested about 320,000 compounds, of which about 22,000 (6.9%) were called active. Inconclusive results, whose numbers are uncertain, are shown with a selection of clear calls. Calls come from the whole dose curve; as a rule, active = well fitted inhibition curve with a large enough effect; inconclusive = small, poorly fitted or top-dose-only effect, or another doubt; inactive = no such curve, though single readings can be large or run the other way. Potencies of inconclusive entries are doubtful fits and often do not repeat.
# Assay: Primary qHTS for delayed death inhibitors of the malarial parasite plastid, 96 hour incubation
# Conditions: P. falciparum luciferase reporter growth; series mostly up to 28.7 µM
# Procedure, shortened: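 P. falciparum expressing integrated firefly luciferase, in erythrocytes at 2% hematocrit, 0.05% parasitemia, incubated with compounds 96 h at 37 C, 5% CO2. Growth inhibition read as loss of luminescence; two-generation exposure targets delayed-death apicoplast inhibitors.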
# % is set by controls: 0 for no effect and ±100 for the full control effect; potency is the fitted concentration of half-maximal effect.
Structure (SMILES),Potency,"activity change, negative = inhibition"
Nc1c(C(=O)N2CCCC2)sc2nc(-c3ccccc3)ccc12,inactive,
CCc1ccc(S(=O)(=O)Nc2ccc(-c3ccc4nncn4n3)cc2)s1,"inconclusive: 18.5 µM [inhibitor, partial curve, poor fit]",
Cn1c(=O)oc2cc(S(=O)(=O)NCCC(=O)NCc3ccc(F)cc3)ccc21,active: 13.1 µM,
COc1ccc(C)cc1NC(=O)c1cc(-c2ccccc2)nc2c1cnn2C(C)C,"inconclusive: 18.5 µM [inhibitor, single point]",
COc1ccccc1CN1CCN(C(=O)c2ccco2)CC1,inactive,
Cc1c(/C=N/NC(=O)c2cccs2)c2ccccc2n1Cc1ccccc1Cl,"inconclusive: 4.15 µM [inhibitor, partial curve]",
Cn1c(N)c(C(=O)CSc2nnc(-c3cccs3)n2C2CC2)c(=O)[nH]c1=O,"inconclusive: 3.7 µM [inhibitor, full curve]",
Cc1cc(O)c2c(CN3CCN(Cc4ccccc4)CC3)cc(=O)oc2c1,active: 8.28 µM,
COc1ccc(S(=O)(=O)N2CCCCC2)cc1NC(=S)Nc1cccc(Cl)c1C,"inconclusive: 0.208 µM [inhibitor, partial curve, poor fit]",
Cc1cccc(Nc2cc(Cl)nc(SCC(=O)O)n2)c1C,"inconclusive: 1.9 µM [inhibitor, partial curve]",
COc1cccc(NC(=O)CN2CCCCCC2)c1,"inconclusive: 18.5 µM [inhibitor, single point]",
Cc1ccc(S(=O)(=O)NCCC(=O)NCCOc2ccccc2)cc1,inactive,
Cc1nc(-c2ccccn2)nc(N(C)c2ccccc2)c1Cl,active: 1.17 µM,
CCc1cccc(C)c1NC(=S)N(CCCN1CCN(C)CC1)Cc1cccs1,"inconclusive: 10.4 µM [inhibitor, partial curve, poor fit]",
CCOc1ccccc1NC(=O)C(CC(C)C)NC(=O)C1CCCCC1 (centres undefined),"inconclusive: 10.4 µM [inhibitor, single point]",
Cc1cc(CNC(=O)C2CCC(=O)N(Cc3ccccc3F)C2)on1 (centres undefined),"inconclusive: 2.33 µM [inhibitor, full curve]",
CCc1ccccc1NC(=O)CC(c1ccc(OC)cc1)n1cccc1 (centres undefined),"inconclusive: 10.4 µM [inhibitor, single point]",
COc1cccc2sc(=NC(=O)CS(=O)(=O)c3ccc(Cl)cc3)n(C)c12,"inconclusive: 11.7 µM [inhibitor, single point]",
O=C(c1ccc(-c2ccc(Cl)cc2)o1)N1CCN(S(=O)(=O)c2cccs2)CC1,"inconclusive: 18.5 µM [inhibitor, single point]",
CS(=O)(=O)c1ccc2nc(NC(=O)c3ccc(=O)[nH]c3)sc2c1,inactive,
CCCCc1ccc(NS(=O)(=O)c2cccc(C(=O)N3CCCN(C)CC3)c2)cc1,"inconclusive: 18.5 µM [inhibitor, single point]",
CCN(CC)S(=O)(=O)c1ccc(C(=O)NCc2ccc3[nH]c4c(c3c2)CCCC4)cc1,active: 11.7 µM,
CC1CC1C(=O)Nc1nc2ccc(S(C)(=O)=O)cc2s1 (centres undefined),inactive,

Structure (SMILES),Potency,"activity change, negative = inhibition"
CC(C)(C)n1nnnc1C(c1cccnc1)N1CCN(c2ccccc2F)CC1 (centres undefined),inactive,
Cc1ccc(C(C)C)cc2c(C)ccc1-2,"inconclusive: 19 µM [inhibitor, partial curve, poor fit]",
CCN1CCN(CCC(=O)Nc2ccccc2)CC1,active: 13.1 µM,
O=C(CN1CCC(NC(=O)c2cccc(F)c2)CC1)Nc1ccc(Br)cc1,"inconclusive: 18.5 µM [inhibitor, single point]",
COc1ccc(C(=O)c2ccc(OC)cc2O)c(O)c1,,inactive: 31.9% [at 5.75 µM]
Cc1cccn2c(=O)c3cc(C(=O)NC4CCCC4)c(=N)n(CCc4ccccc4)c3nc12,active: 4.15 µM,
Cn1nccc1C(=O)OCC(=O)Nc1cccc(Cl)c1,"inconclusive: 0.329 µM [inhibitor, full curve, poor fit]",
CCn1c(SCC(=O)N/N=C/C=C\c2ccco2)nc2ccccc21,inactive,
CCCCCC#CCN1CCN(C23CC4CC(CC(C4)C2)C3)CC1,"inconclusive: 7.38 µM [inhibitor, partial curve, poor fit]",
COc1cccc(N2C(C(C)=O)=NN(c3ccccc3)C2c2ccc(N3CCOCC3)cc2)c1 (centres undefined),"inconclusive: 18.5 µM [inhibitor, single point]",
Cc1cccc(C(C)C)c1NC(=O)c1cc2ccccc2o1,"inconclusive: 18.5 µM [inhibitor, single point]",
C=CCSC1=C(C#N)C(c2ccccc2OCC)C(C#N)C(=O)N1 (centres undefined),"inconclusive: 18.5 µM [inhibitor, single point]",
Cc1ccc2c(c1)C1CN(C)CCC1N2S(=O)(=O)c1cc(C(F)(F)F)ccc1Cl (centres undefined),inactive,
CN1CCN(Cc2cccc(Oc3ccccc3)c2)CC1,"inconclusive: 18.5 µM [inhibitor, single point]",
S=C1NC2=C(CCCC2=C2SCCS2)C(c2ccccc2)N1 (centres undefined),"inconclusive: 18.5 µM [inhibitor, single point]",
CCN1CCN(C(=O)CCc2nnc(CCc3c[nH]c4ccccc34)o2)[C@@H](C)C1=O,"inconclusive: 18.5 µM [inhibitor, single point]",
Cc1cccc(N2CCN(C(=O)CCNS(=O)(=O)c3ccc4c(c3)oc(=O)n4C)CC2)c1C,active: 1.31 µM,
O=S(=O)(c1ccc(-c2ccon2)s1)N1CCN(c2ccccn2)CC1,"inconclusive: 5.86 µM [inhibitor, partial curve, poor fit]",
CCOC(=O)c1cc(C)n(-c2ccccc2)c1C,inactive,
Cc1ccc2nc(SCc3cn4c(C)cc(C)nc4n3)[nH]c2c1,"inconclusive: 9.28 µM [inhibitor, single point]",
CCOC(=O)c1nnn(CC(=O)N2N=C(c3ccc(Cl)cc3)CC2c2ccccc2)c1C(=O)OCC (centres undefined),"inconclusive: 18.5 µM [inhibitor, single point]",
O=C(Nc1cccc(Cl)c1)c1ccc(NC2=NC3CS(=O)(=O)CC3S2)cc1 (centres undefined),"inconclusive: 11.7 µM [inhibitor, single point]",
O=C(NNC1CC(=O)N(c2ccccc2)C1=O)c1cccnc1 (centres undefined),inactive,

Structure (SMILES),Potency,"activity change, negative = inhibition"
CC(=O)Nc1cccc(NC(=O)C(=O)c2cn(CC(=O)N3CCCCC3)c3ccccc23)c1,"inconclusive: 0.0928 µM [inhibitor, full curve, poor fit]",
Cc1cccc(NC(=O)C2(c3cccs3)CCOCC2)n1,inactive,
CC(C)c1ccc(C2CC(c3ccc(Br)cc3)=NN2C(N)=S)cc1 (centres undefined),"inconclusive: 18.5 µM [inhibitor, single point]",
CCOc1ccc(NC(=O)COC(=O)CCCc2c[nH]c3ccccc23)cc1,"inconclusive: 0.0329 µM [inhibitor, full curve, poor fit]",
Cc1ccc(C(C(=O)NC2CCCCC2)N(Cc2ccccc2)C(=O)Cc2c[nH]c3ccccc23)o1 (centres undefined),"inconclusive: 0.208 µM [inhibitor, partial curve, poor fit]",
COc1cccc(C2=CC(=O)C[C@H](c3ccc4c(c3)OCO4)C2)c1,"inconclusive: 18.5 µM [inhibitor, single point]",
CC(=O)N/C(=N\c1nc(C)cc(C)n1)Nc1ccccc1Cl,inactive,
C=CCc1ccc(OCc2ccc(C(=O)Nc3ccc(NC(C)=O)cc3)o2)c(OC)c1,"inconclusive: 2.94 µM [inhibitor, full curve]",
C=CCn1c(SCC(=O)N2N=C(c3ccco3)CC2c2ccco2)nnc1-c1ccncc1 (centres undefined),"inconclusive: 18.5 µM [inhibitor, single point]",
CCCC1(c2ccccc2)NC(=O)N(CC(=O)c2[nH]c(C)c(C(=O)OCC)c2C)C1=O (centres undefined),active: 8.28 µM,
Cn1cc(CN2CCC[C@H]2CO)c(-c2cccc(Cl)c2)n1,"inconclusive: 11.7 µM [inhibitor, single point]",
CCCOc1ccc(C(=O)NNC(=S)NC(=O)c2cccs2)cc1,"inconclusive: 2.33 µM [inhibitor, full curve]",
Cc1ccc(C)c(NC(=S)N2CCN(CCO)CC2)c1,inactive,
CN(C)S(=O)(=O)Oc1ccsc1C(=O)Nc1cccc(Cl)c1,"inconclusive: 0.465 µM [inhibitor, full curve, poor fit]",
Cn1c(-c2c(N)n(C3CCCC3)c3nc4ccccc4nc23)nc2ccccc21,active: 8.28 µM,
COCCCNC(=O)c1ccccc1NS(=O)(=O)c1ccc(C)cc1,inactive,
COc1cccc(NC(=O)CN(C)C(=O)c2ccc(-c3ccccc3Cl)o2)c1,"inconclusive: 0.0738 µM [inhibitor, full curve, poor fit]",
COc1cc(/C=C(\NC(=O)c2ccccc2)C(=O)N2CC3CC(C2)c2cccc(=O)n2C3)cc(OC)c1OC (centres undefined),inactive,
Cc1cc(C=C2C(=O)NC(=S)NC2=O)c(C)n1-c1ccc2c(c1)OCO2,"inconclusive: 18.5 µM [inhibitor, single point]",
CCN(CC)CCCNc1nc(-n2nc(C)cc2C)nc2sc3c(c12)CC(C)(C)OC3,"inconclusive: 2.62 µM [inhibitor, partial curve, poor fit]",
COc1ccc2c(c1)C(=NNc1ccc(C(=O)O)cc1)c1cc(OC)ccc1-2,inactive,
CCc1cccc(OCC2Cn3c(nc4c3c(=O)n(C)c(=O)n4C)O2)c1 (centres undefined),"inconclusive: 0.828 µM [inhibitor, full curve, poor fit]",
Cc1ccc(NC(=O)c2cc(NC(=O)/C=C\C(=O)O)ccc2N2CCCCC2)cc1,"inconclusive: 10.4 µM [inhibitor, single point]",

# Fetched by compound from above, five records:
Structure (SMILES),Potency,"activity change, negative = inhibition"
CCN(CC)CCCNc1nc(-n2nc(C)cc2C)nc2sc3c(c12)CC(C)(C)OC3,"inconclusive: 2.62 µM [inhibitor, partial curve, poor fit]",
C=CCc1ccc(OCc2ccc(C(=O)Nc3ccc(NC(C)=O)cc3)o2)c(OC)c1,"inconclusive: 2.94 µM [inhibitor, full curve]",
COc1cc(/C=C(\NC(=O)c2ccccc2)C(=O)N2CC3CC(C2)c2cccc(=O)n2C3)cc(OC)c1OC (centres undefined),inactive,
COCCCNC(=O)c1ccccc1NS(=O)(=O)c1ccc(C)cc1,inactive,
Cc1ccc(C(C(=O)NC2CCCCC2)N(Cc2ccccc2)C(=O)Cc2c[nH]c3ccccc23)o1 (centres undefined),"inconclusive: 0.208 µM [inhibitor, partial curve, poor fit]",
